No constants are given. Whether binding was seen depends on the method and setting. Some results given as binding are weak or reduced against the parent protein; the word gives no strength.
Target: rat Cthrc1 with a C terminal myc/6xHis tag (rat) (UniProt Q8CG08)
Experiment: non-reducing SDS-PAGE and autoradiography of plasma 30 min after injection (self-association)

By UniProt entry, the sequences of proteins in these tests, tags left out. Where a name states a change or a piece, a line headed by the entry shows the natural chain unless it says otherwise.
UniProt Q8CG08: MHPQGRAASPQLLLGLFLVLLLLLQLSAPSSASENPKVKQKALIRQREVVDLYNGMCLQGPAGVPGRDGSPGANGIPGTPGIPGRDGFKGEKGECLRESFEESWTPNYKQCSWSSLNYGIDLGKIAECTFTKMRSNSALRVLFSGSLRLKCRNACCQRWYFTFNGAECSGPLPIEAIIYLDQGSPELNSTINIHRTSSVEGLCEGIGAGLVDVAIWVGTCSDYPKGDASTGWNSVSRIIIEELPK

- binding: binds
Substance: rat Cthrc1 with a C terminal myc/6xHis tag (from UniProt Q8CG08 33-245)

Source: patent publication US9050296
